The target in this test is EIN2 (endogenous, Arabidopsis seedlings) (Arabidopsis thaliana (endogenous in seedlings)) (UniProt Q9S814). Briefly: co-IP.

The chains behind the UniProt entries cited, without tags or fusion partners. Where a name states a change or a piece, a line headed by the entry shows the natural chain unless it says otherwise.
UniProt Q9S814: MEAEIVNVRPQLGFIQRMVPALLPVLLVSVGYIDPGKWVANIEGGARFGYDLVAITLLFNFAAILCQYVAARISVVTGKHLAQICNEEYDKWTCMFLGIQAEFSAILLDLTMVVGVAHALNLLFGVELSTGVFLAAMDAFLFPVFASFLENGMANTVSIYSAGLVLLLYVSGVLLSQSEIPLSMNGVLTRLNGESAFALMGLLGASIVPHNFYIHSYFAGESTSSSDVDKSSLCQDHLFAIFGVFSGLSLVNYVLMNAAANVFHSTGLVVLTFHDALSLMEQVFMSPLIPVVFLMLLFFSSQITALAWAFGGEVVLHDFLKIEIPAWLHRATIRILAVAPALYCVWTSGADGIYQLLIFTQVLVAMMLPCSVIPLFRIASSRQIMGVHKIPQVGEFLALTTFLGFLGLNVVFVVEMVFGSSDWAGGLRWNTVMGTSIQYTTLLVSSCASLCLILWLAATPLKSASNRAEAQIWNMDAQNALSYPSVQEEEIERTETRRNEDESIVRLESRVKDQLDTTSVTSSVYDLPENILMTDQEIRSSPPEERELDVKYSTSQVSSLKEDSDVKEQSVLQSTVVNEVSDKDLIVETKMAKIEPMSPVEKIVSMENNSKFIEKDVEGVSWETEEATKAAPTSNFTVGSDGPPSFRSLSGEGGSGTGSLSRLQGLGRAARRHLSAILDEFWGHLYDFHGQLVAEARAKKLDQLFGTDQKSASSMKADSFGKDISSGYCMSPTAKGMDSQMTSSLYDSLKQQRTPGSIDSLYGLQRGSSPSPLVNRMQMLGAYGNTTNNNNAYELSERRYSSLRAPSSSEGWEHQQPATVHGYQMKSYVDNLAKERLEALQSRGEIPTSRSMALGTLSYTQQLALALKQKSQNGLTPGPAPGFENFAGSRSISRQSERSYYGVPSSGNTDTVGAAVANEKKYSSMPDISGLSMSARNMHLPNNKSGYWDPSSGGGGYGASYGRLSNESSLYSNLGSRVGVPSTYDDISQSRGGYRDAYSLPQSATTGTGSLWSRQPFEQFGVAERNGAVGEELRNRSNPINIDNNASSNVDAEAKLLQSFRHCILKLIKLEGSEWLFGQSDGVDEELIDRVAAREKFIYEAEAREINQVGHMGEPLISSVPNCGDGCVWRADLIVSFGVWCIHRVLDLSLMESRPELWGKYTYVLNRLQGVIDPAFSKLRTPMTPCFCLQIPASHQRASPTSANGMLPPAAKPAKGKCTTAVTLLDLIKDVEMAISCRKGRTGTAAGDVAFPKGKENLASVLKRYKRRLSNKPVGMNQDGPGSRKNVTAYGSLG
UniProt Q6PUA2: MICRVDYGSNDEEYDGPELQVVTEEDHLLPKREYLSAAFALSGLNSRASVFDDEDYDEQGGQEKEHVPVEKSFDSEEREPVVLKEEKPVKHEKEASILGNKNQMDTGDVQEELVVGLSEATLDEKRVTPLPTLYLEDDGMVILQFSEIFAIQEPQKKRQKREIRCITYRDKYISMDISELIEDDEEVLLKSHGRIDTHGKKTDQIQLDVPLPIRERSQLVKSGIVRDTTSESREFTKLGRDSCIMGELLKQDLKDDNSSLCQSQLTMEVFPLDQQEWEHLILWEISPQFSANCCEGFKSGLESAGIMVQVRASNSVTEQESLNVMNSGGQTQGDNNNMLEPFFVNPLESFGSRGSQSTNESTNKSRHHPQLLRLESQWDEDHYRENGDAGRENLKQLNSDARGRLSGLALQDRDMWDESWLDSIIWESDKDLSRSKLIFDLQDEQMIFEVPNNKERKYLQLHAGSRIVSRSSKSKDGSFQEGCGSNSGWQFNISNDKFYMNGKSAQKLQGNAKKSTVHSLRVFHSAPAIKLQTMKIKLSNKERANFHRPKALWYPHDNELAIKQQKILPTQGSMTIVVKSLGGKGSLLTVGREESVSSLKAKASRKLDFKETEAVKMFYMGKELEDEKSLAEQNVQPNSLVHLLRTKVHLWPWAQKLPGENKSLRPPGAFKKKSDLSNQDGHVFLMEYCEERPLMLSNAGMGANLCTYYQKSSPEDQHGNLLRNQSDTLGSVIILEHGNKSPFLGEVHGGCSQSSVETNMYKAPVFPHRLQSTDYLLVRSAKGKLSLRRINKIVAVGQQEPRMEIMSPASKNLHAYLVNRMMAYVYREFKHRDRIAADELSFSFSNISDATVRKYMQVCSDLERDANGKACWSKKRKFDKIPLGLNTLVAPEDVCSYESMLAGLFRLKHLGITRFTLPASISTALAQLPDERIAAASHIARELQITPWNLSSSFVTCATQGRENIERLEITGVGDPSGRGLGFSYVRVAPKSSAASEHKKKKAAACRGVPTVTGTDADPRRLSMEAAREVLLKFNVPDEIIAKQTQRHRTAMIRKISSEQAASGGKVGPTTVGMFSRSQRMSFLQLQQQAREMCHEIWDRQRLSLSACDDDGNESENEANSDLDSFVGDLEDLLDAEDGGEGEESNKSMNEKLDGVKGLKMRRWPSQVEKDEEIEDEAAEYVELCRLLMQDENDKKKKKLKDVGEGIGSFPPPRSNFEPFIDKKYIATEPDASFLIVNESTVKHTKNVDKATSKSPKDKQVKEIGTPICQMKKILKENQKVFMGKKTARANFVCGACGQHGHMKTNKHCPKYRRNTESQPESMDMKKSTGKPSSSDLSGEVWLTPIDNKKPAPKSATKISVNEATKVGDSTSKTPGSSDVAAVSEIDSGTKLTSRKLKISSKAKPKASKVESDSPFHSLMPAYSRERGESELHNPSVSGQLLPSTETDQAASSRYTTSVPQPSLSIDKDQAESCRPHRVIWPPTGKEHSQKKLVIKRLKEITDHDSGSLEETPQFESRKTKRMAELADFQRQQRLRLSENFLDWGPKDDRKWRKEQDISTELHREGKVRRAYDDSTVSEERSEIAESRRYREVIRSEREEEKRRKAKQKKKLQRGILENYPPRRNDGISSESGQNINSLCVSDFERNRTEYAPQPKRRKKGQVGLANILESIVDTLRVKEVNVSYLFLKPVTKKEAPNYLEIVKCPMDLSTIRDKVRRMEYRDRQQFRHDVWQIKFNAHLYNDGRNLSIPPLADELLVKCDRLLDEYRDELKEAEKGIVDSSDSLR

Results are given in words; binding and its absence hold for the method and conditions named. In cells and extracts the contact can be indirect. A result given as binding can be weak or reduced; the word gives no strength.

As for “HAF2-GFP (full length HAF2 in transgenic Arabidopsis) (from UniProt Q6PUA2 1-1786)”, the binding entry was “binds”.

Values taken from publication doi:10.1101/2023.12.31.573642.
